Plain letter strings leave the end groups untold.
Test: general procedure: Fmoc solid-phase peptide synthesis; Rink Amide LL resin (100–200 mesh), 0.29 mmol/g; DIC / OxymaPure
Conditions: whole synthesis; for isolated yield: scale of the general procedure 0.116 mmol (400 mg of resin)

Substance	isolated mass	isolated yield
KKLLKLLKLLL	84.0 mg	58.0%
KKLLKLLKlll	54.1 mg	26.2%
KKLLKllklll	38.0 mg	18.4%
KkLlKlLkLlL	35.6 mg	17.3%
VDKPPYLPRPRPPRRIYNR	111.0 mg	34.0%
kKLLKLLKLLl	77.4 mg	37.5%
kKLLKLLkLLl	69.0 mg	33.5%
kKlLkLlKlLl	55.6 mg	27.0%
kkLLkLLKLLL	77.5 mg	37.6%
kkLLkLLkLLL	102.6 mg	70.9%
kkllkllklll	22.8 mg	11.0%

Reference: article PMC10714400 (ACS Infectious Diseases, 2023)
